Measurements reported in patent US8685981B2, “Cyclic compound having hetero atom” (Daiichi Sankyo Company, Limited, priority 2009, dated 2014).
For some of these results: At least one structure is not confirmed: it was looked up by name or label, or the drawing left a doubt. Some entries share one result that the patent states for a list of compounds. For some of these results: At least one read-out could not be matched to a standard name with certainty.

Assays:
[1] = tested on: ST2 cells, murine bone marrow-derived stromal cells; test: Osteoblast differentiation test (alkaline phosphatase activity); format: cell-based; conditions: at 0.03 μg/mL, four days of culturing, control group (0.1% DMSO) set at 100%
Procedure: ST2 cells, murine bone marrow-derived stromal cells, (obtained from RIKEN) were used.
In this test, α-MEM media (obtained from GIBCO BRL Cat. No. 10370-021) containing 10% (v/v) of inactivated calf serum (obtained from Hyclone Laboratories, Inc.) and 1% (v/v) of Penicillin-Streptomycin Liquid (obtained from GIBCO BRL Cat. No. 15140-122) (hereinbelow, abbreviated as 10%-FBS-αMEM) were used. In this test, all culturing was performed in a CO2 incubator (37° C., 95% humidity, 5% CO2).
The aforementioned cells were detached with 2 mL of a 0.25% trypsin solution (obtained from GIBCO BRL Cat. No. 15050-065) and dispersed in 10 mL of 10%-FBS-αMEM. Subsequently, the cells were collected by centrifugation (25° C., 800 rpm, five minutes). Then, a cell suspension containing 40000 of the cells/mL of 10%-FBS-αMEM was prepared. The cell suspension was then dispensed into 96-well plates (the product of Falcon), 100 μL per well, at a density of 4000 cells/well, followed by culturing for 24 hours. To the wells except for the below-described well containing a control group, the compound was dispensed at final concentrations of 0.01, 0.03, 0.1, and 0.3 μg/ml. To the well of a control group, DMSO was dispensed at a final concentration of 0.1% (v/v). After four days of culturing, the activity of alkaline phosphatase (ALP) was measured in each group.
The measurement of ALP activity was performed as follows. That is, the medium in each well of the culture plates was completely removed. Each well was then washed by dispensing 100 μL of Dulbecco's phosphate buffer (obtained from GIBCO BRL Cat. No. 14190-144) and then removing it. […] Subsequently, absorbance was measured by a microplate reader (Bio-Rad Laboratories, Inc.). Setting the measurement value of the control group of each plate at 100%, the increase (%) in alkaline phosphatase activity in the test compound-addition group was calculated, which was assessed as the degree of osteoblast differentiation.

female F344 rats = test: Effect on bone density (oophorectomy or sham surgery, femur DXA); format: in vivo; conditions: 3 mg/kg, orally once a day, six days a week, six to eight weeks, female F344 rats after oophorectomy or sham surgery
Procedure: Eight to 12 week old female F344 rats were purchased from Charles River Laboratories and used in the following experiment. Rats were anesthetized with an intraperitoneal administration of 40 mg/kg of Somnopentyl (Kyoritsu Seiyaku Corporation), and then oophorectomy or sham surgery was performed. From the day after surgery, a suspension of the test compound in a 0.5% methyl cellulose solution (Wako pure chemical industries, Ltd. Cat. No. 133-14255) was orally administered once a day, six days a week. Six to eight weeks after administration, the rats were euthanized by removal of whole blood from the lower abdominal aorta under Somnopentyl anesthesia, and the left and right femur was excised.
After removal of soft tissues, the bone density of the femur thus excised was measured by a DXA apparatus, DCS-600R (Aloka Co., Ltd.). The bone density was assessed in the whole femur as well as in three equal sections of the whole femur, namely the proximal end, the shaft, and the distal end.

Row | Structure (SMILES) | increase (%) in alkaline phosphatase activity [1] [%] | bone density of the femur (female F344 rats)
1 | Cl.NC(=O)c1ccc2cncc(N3CCC(OCCO)CC3)c2c1 [Example 80] | ≥ 200 | –
2 | Cl.NC(=O)c1ccc2cncc(N3CCC(OCCOC4CCOCC4)CC3)c2n1 [Example 7, 8-{4-[2-(Tetrahydro-2H-pyran-4-yloxy)ethoxy]piperidin-1-yl}-1,6-naphthyridine-2-carboxamide hydrochloride] | ≥ 200 | –
3 | COCC1CCCN(c2cncc3ccc(C(N)=O)cc23)C1 (stereo not shown) [Example 17, 4-[3-(Methoxymethyl)piperidin-1-yl]isoquinoline-6-carboxamide] | – | significantly increased
4 | CN(C)C(=O)COC1CCN(c2cncc3ccc(C(N)=O)nc23)CC1.Cl [Example 91] | ≥ 200 | –
